According to patent EP3404113A1, “METHOD FOR DETECTING PROTEIN-DNA INTERACTION” (Universidad del Pais Vasco, priority 2017, dated 2018):
At least one read-out could not be matched to a standard name with certainty.

Legend:
FOXM1-DNA = molecular target: T1, FOXM1-DNA (Homo sapiens, UniProt Q08050); experiment: Multiplexed nanopore single-molecule measurement, FOXM1-DNA pair (Reporter 2); type: binding; settings: 1.75 µM FOXM1, 0.097 µM DNA, increasing concentrations of FDI-6, n = 4
T1 construct: the FoxMIC gene (residues 222-360) was cloned in a pET-28 vector; made in house; host or cells: E. coli BL21 (DE3)
T1 sequence (Q08050 222-360): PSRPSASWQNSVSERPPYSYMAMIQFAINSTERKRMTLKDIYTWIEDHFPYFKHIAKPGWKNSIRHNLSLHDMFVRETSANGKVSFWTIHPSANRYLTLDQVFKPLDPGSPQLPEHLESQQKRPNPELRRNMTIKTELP

FOXM1 = molecular target: T2, FOXM1 (Homo sapiens, UniProt Q08050); experiment: Nanopore single-molecule measurement of the inhibition of FOXM1 binding to its DNA target sequence; settings: increasing concentrations of FDI-6; n = 24
T2 construct: the FoxMIC gene (residues 222-360) was cloned in a pET-28 vector; made in house; host or cells: E. coli BL21 (DE3)
T2 sequence (Q08050 222-360): T1 sequence (Q08050 222-360)
Method: The cis compartment (connected to the ground electrode and where samples were added) was filled with 5 mM MgCl2, 150 mM KCl, 10 mM HEPES pH 7.2 (to mimic physiological conditions) and the trans compartment with 5 mM MgCl2, 2 M KCl, 10 mM HEPES pH 7.2 (to increase the ionic current signal). 0.5 µL of previously heptamerized α-HL was added to the cis compartment and following the first insertion the chamber was manually perfused to remove excess of α-HL. Ionic currents through the αHL pore were measured using Ag/AgCl electrodes with agar bridges in 3 M KCl, and balanced before measurements. The electrodes were connected to an amplifier (Axopatch 200B, Molecular Devices), the signal was filtered at 5 kHz (lowpass Bessel filter) and acquired at 20 kHz with a digitizer (Digidata 1440A, Molecular Devices). […] Raw data was first analyzed with pClamp software (Molecular Devices) to obtain the current and dwell time of the ionic current levels, >90% of the signals longer than 10 ms were the characteristic signals described in the main text. […] The RepE oligonucleotide begins with G-C while that of FOXM1 begins with A-T. Following the addition of FOXM1 protein, events showing an additional step are detected (Figure 3b), which correspond to the threading of protein-bound DNA molecules, detachment of the protein, unzipping and translocation of the DNA through the pore. […]

Nc1c(C(=O)Nc2ccc(F)cc2)sc2nc(-c3cccs3)cc(C(F)(F)F)c12 [FDI-6]
FOXM1-DNA interactions (observed Kd) (FOXM1-DNA): inhibited | observed Kd (FOXM1): increase in the observed Kd
